Source: the supplement of paper PMC11006884
Most of the targets with a hit are listed elsewhere, so they are rarer here than in the full data. This is a noisy data set. The list shows a part of the results, in another mix than the full data.

The chains behind the UniProt entries cited, without tags or fusion partners. Where a name states a change or a piece, a line headed by the entry shows the natural chain unless it says otherwise.
UniProt Q9NQ29: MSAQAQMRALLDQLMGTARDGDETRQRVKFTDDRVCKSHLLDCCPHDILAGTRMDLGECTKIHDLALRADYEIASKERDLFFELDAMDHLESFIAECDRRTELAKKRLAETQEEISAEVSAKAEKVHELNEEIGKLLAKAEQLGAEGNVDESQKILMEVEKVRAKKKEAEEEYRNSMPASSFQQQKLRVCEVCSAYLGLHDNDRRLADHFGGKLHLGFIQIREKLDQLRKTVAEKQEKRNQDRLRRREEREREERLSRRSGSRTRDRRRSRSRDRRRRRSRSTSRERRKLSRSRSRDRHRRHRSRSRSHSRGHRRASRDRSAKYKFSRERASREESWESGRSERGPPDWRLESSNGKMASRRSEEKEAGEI
UniProt Q9NRY4: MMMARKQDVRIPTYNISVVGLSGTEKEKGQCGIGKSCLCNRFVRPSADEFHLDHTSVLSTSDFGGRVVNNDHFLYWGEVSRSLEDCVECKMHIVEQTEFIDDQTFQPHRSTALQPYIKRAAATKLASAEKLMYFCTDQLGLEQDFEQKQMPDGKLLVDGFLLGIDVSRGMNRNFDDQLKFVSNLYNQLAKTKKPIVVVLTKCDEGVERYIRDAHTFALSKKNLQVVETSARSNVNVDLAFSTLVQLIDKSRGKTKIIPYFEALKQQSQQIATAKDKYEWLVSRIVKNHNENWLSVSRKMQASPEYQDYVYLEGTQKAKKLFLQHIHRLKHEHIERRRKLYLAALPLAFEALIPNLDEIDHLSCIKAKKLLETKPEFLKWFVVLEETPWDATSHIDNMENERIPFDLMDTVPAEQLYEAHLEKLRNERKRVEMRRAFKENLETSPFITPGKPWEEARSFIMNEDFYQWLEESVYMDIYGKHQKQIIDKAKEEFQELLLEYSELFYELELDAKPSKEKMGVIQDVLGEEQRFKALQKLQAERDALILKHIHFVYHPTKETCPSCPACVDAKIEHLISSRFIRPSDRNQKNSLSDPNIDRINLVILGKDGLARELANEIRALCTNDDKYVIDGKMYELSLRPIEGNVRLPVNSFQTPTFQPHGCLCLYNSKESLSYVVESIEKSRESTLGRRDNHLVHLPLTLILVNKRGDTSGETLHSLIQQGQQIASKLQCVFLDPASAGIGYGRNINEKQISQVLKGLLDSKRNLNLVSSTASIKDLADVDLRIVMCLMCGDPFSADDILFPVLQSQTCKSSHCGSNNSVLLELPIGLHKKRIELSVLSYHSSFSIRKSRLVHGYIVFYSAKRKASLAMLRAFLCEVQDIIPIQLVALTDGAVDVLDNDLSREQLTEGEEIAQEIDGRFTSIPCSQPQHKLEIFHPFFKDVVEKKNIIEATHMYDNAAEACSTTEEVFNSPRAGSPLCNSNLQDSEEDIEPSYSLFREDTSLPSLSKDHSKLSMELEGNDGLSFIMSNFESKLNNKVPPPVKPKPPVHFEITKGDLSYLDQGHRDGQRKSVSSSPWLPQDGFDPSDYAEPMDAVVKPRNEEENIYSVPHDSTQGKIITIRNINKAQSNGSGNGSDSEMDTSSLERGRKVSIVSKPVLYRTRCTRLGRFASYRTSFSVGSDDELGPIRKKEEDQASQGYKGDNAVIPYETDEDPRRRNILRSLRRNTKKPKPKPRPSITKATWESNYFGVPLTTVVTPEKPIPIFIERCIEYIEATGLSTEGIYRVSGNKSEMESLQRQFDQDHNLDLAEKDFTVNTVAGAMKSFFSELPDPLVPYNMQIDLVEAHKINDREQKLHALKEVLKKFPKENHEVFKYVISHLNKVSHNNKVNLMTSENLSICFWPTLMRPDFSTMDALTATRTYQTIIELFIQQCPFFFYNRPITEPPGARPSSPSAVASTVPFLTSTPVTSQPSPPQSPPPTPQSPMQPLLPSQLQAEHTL
UniProt Q9NS86: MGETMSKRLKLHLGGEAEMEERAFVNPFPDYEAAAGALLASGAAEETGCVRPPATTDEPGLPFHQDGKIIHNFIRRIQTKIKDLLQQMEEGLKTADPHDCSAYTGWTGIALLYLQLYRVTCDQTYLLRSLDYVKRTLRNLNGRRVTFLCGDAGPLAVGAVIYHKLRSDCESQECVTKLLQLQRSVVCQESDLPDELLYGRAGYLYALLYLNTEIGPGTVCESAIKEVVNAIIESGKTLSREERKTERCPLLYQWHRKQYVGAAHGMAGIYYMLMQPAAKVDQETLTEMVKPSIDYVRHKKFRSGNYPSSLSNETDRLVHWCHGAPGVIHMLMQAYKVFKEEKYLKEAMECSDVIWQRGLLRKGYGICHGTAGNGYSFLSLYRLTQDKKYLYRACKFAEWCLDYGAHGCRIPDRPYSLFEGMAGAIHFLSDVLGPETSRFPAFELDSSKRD
UniProt Q9H6K4: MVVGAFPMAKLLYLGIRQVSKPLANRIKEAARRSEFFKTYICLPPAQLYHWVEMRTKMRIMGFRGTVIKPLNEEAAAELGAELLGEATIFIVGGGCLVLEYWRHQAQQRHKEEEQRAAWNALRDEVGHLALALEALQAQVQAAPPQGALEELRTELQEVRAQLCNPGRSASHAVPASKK
UniProt Q9H4L4: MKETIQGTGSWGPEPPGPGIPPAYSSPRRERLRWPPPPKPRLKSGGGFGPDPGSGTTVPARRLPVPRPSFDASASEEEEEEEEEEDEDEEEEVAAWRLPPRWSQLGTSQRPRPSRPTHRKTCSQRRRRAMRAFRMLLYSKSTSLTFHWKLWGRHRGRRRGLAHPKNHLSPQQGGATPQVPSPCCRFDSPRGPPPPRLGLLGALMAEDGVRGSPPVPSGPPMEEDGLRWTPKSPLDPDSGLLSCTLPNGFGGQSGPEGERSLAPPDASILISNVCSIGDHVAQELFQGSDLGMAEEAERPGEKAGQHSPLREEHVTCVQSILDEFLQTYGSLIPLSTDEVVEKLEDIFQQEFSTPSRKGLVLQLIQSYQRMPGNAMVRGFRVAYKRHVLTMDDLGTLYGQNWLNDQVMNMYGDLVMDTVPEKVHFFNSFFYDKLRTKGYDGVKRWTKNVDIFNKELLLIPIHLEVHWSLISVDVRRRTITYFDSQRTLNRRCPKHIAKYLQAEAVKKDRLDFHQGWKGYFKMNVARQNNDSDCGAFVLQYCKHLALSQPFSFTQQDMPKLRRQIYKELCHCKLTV
UniProt Q9NSD9: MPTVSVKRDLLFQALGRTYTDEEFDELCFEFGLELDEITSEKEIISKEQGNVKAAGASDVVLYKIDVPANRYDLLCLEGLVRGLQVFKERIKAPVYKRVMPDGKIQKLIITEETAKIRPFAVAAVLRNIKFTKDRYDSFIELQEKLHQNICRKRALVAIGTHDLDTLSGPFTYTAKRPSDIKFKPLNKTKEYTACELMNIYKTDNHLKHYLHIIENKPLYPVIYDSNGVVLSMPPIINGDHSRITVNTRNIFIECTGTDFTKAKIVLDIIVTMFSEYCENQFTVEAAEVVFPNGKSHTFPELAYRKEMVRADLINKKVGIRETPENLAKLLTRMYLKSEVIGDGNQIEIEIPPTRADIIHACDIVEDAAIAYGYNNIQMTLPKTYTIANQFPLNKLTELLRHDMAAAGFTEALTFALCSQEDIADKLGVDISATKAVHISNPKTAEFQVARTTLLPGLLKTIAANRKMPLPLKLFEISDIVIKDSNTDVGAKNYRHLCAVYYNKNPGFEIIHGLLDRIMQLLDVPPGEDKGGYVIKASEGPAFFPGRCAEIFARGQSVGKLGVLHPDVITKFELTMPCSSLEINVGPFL
UniProt Q9HAV4: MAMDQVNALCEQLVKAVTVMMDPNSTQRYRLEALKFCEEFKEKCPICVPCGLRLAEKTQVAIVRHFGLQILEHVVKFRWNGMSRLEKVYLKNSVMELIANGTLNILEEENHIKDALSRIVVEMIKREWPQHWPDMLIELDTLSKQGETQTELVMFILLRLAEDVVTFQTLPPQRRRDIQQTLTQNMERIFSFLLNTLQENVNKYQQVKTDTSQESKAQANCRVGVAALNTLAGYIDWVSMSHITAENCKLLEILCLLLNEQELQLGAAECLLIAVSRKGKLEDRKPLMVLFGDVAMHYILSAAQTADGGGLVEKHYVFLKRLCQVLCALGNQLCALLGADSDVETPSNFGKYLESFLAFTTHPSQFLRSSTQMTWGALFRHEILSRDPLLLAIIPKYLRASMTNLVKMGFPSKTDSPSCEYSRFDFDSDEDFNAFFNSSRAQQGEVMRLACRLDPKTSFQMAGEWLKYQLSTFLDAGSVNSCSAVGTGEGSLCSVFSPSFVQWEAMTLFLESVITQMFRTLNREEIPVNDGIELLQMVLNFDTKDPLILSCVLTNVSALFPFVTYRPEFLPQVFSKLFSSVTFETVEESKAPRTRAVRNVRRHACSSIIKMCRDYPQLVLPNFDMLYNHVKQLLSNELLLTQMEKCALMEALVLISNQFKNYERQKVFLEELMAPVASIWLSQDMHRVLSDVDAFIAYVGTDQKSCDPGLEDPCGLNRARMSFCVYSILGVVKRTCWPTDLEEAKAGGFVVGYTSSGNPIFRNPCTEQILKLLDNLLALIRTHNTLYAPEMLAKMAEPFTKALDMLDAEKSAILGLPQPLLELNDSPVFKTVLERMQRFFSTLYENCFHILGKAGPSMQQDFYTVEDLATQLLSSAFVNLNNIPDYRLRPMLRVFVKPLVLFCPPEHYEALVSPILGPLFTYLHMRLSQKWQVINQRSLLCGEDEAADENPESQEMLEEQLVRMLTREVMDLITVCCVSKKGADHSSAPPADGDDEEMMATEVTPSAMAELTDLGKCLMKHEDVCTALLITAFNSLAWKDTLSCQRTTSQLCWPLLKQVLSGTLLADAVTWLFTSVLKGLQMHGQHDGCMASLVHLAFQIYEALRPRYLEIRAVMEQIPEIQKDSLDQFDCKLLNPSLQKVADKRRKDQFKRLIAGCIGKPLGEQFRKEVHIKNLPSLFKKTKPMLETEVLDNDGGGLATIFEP
UniProt Q9H668: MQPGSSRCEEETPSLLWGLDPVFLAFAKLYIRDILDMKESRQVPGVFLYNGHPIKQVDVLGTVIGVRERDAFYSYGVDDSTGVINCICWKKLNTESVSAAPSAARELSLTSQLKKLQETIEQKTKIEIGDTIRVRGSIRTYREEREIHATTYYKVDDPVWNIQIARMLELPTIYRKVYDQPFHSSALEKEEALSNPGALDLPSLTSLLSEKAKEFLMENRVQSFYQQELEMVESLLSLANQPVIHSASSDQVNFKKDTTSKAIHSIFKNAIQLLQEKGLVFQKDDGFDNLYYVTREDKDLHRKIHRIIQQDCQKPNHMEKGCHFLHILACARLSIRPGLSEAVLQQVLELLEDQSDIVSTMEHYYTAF
UniProt Q9H3H3: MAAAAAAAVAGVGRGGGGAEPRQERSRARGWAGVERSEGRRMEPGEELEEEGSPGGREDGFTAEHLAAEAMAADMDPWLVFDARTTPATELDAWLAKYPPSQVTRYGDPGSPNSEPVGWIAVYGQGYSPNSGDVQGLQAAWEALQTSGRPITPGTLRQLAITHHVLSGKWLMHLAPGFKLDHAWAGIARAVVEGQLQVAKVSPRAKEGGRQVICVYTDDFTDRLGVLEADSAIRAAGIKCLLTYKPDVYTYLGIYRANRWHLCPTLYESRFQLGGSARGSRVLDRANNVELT
UniProt Q9H4B7, whole entry, looked up: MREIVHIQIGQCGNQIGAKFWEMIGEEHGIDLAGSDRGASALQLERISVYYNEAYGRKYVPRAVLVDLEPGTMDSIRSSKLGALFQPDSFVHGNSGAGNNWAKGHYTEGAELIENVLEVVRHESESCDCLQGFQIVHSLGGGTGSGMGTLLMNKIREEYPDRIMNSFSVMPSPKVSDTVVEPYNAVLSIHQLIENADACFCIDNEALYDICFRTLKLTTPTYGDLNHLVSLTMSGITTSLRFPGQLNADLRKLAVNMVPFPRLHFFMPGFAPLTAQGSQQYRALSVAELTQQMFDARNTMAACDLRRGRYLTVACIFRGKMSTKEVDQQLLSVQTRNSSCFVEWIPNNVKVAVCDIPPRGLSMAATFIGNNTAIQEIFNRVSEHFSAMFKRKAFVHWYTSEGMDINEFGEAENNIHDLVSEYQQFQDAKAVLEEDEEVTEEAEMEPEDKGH
UniProt Q9NP81: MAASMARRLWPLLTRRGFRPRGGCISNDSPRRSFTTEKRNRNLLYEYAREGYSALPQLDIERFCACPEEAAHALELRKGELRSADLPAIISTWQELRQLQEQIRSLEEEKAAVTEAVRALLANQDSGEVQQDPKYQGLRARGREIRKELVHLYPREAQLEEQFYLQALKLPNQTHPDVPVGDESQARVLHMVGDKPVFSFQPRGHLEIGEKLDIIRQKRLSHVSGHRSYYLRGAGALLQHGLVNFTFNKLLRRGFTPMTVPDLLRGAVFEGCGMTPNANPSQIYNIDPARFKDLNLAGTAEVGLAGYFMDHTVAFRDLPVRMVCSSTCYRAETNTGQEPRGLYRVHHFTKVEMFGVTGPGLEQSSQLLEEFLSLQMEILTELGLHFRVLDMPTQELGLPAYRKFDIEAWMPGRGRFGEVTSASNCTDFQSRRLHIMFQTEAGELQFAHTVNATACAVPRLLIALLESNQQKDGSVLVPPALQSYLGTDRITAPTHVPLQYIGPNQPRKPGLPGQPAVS

Compound: COC(=O)/C=C/c1ccccc1 [methyl cinnamate]
Experiment: log2 ratio of iodoacetamide-alkyne labeling of the cysteine site, DMSO over compound (competition); higher = stronger covalent engagement of the cysteine by the compound, active = 1 or more
Conditions: 500 µM; treatment time 1 h; system: HEK293T cell lysate
Summary of the method: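 After 1 h at ambient temperature with vehicle or electrophile (500 µM), HEK293T lysate (2 mg/mL) was labelled for 1 h with iodoacetamide alkyne and clicked to sCIP-TMT reagents. Pooled samples were trypsin-digested overnight at 37 °C, streptavidin-enriched, acid-eluted and analysed by Orbitrap Eclipse LC-MS/MS with FAIMS, then quantified in FragPipe over three replicates with duplicate channels. A cysteine's log2 competition ratio is its mean control-channel over mean compound-channel reporter intensity. Cysteines quantified in only one replicate were not included.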

log2 ratio of iodoacetamide-alkyne labeling, inactive:
NOL6 C1034 (UniProt Q9H6R4) 0.159
WDR54 C18 (UniProt Q9H977) 0.0845
XPNPEP1 C342 (UniProt Q9NQW7) -0.302
BAZ1A C586 (UniProt Q9NRL2) 0.181
MRPS30 C316 (UniProt Q9NP92) 0.203
RNPEP C181 (UniProt Q9H4A4) 0.00105
LUC7L C44 (UniProt Q9NQ29) 0.176
UniProt Q9NRY4_C730 0.425
KLC4 C53 (UniProt Q9NSK0) 0.0102
LANCL2 C187 (UniProt Q9NS86) 0.0543
ZNF277 C215 (UniProt Q9NRM2) 0.0889
HELLS C169 (UniProt Q9NRZ9) 0.416
OPA3 C164 (UniProt Q9H6K4) 0.276
ZDBF2 C628 (UniProt Q9HCK1) 0.262
SENP3 C532 (UniProt Q9H4L4) 0.327
FARSB C76 (UniProt Q9NSD9) 7.1e-06
MDN1 C4259 (UniProt Q9NU22) 0.114
RAVER2 C362 (UniProt Q9HCJ3) 0.276
LRRC40 C54 (UniProt Q9H9A6) 0.192
PPA2 C44 (UniProt Q9H2U2) 0.0663
UNC45A C34 (UniProt Q9H3U1) -0.0249
XPO5 C10 (UniProt Q9HAV4) -0.171
ACBD3 C129 (UniProt Q9H3P7) 0.122
EXOSC4 C97 (UniProt Q9NPD3) 0.196
FARSB C418 (UniProt Q9NSD9) -0.242
XAB2 C66 (UniProt Q9HCS7) 0.325
XPNPEP1 C309 (UniProt Q9NQW7) -0.00333
XPO5 C706 (UniProt Q9HAV4) 0.349
SENP3 C243 (UniProt Q9H4L4) 0.136
UniProt Q9H668_C8 -0.0359
C11orf68 C222 (UniProt Q9H3H3) -0.0937
ANLN C71 (UniProt Q9NQW6) 0.293
XPO5 C1131 (UniProt Q9HAV4) 0.198
EML4 C82 (UniProt Q9HC35) -0.148
TUBB1 C12 (UniProt Q9H4B7) 0.147
SARS2 C66 (UniProt Q9NP81) -0.0105
UPF2 C578 (UniProt Q9HAU5) -0.198

As a short view, some entries already given.
log2 ratio of iodoacetamide-alkyne labeling, inactive:
EML4 C82 (UniProt Q9HC35) -0.148
TUBB1 C12 (UniProt Q9H4B7) 0.147
